No constants are given. Whether binding was seen depends on the method and setting. For some assays here: Binding seen in cells or lysates may run through a third protein. For some assays here: A result given as binding can be weak or reduced; the word gives no strength. For some assays here: Sequences can lack the tags named with a protein.

Assay [1] deals with T1, endogenous microsomal epoxide hydrolase (mEH) of Huh-7 hepatoma cells (human (endogenous in Huh-7)) (UniProt P07099).
T1 sequence: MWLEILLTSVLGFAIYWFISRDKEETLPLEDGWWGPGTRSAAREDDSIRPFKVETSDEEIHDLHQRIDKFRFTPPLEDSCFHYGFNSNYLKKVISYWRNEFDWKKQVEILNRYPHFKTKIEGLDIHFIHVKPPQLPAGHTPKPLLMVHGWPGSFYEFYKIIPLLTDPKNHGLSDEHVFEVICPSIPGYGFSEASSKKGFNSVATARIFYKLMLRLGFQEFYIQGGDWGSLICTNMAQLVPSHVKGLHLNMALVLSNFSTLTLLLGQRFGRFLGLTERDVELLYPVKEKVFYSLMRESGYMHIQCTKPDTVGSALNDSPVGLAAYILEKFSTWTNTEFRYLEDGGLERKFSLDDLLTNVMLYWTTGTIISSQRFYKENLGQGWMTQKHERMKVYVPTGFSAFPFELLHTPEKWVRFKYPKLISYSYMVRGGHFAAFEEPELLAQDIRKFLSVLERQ
As to the kind of experiment: co-IP; Huh-7 cells transfected with pBIND constructs, RIPA lysate after 48 h; precipitated with goat polyclonal anti-mEH IgG and protein A agarose; blot with anti-GAL4BD and anti-mEH.

Assay [2] concerns the target GAL4 DNA-binding domain fused C terminal 64 amino acids of HBSP (Hepatitis B virus). As to the kind of experiment: two-hybrid; CheckMate mammalian two-hybrid in Huh-7 cells; pACT-EPHX1(353-455) with pBIND constructs and pG5luc reporter; renilla-normalised firefly luciferase at 48 h, relative to pBIND + pACT set to 1.
For assay [3], the target named is GST-HBSP fusion protein (hepatitis B spliced protein) (Hepatitis B virus). Nature of the assay: pull-down; GST-HBSP held on glutathione-Sepharose 4B beads; 35S-labeled mEH from reticulocyte lysate added, overnight at 4°C; washed three times with 1% Triton X-100 in PBS; SDS-PAGE and autoradiography; only the target purified.

Regarding “GAL4 DNA-binding domain fused N terminal 47 amino acids of HBSP (Hepatitis B virus) (domain or fragment)”, the binding result in assay [1] is recorded as “binds”.
As to “GAL4 DNA-binding domain fused C terminal 64 amino acids of HBSP (Hepatitis B virus) (domain or fragment)”, in assay [1], the binding entry was “no binding”.
Same read-out and setting: with “GAL4 DNA-binding domain fused full-length HBSP (Hepatitis B virus)” the entry was “binds”.

B1: VP16-tagged mEH 353-455 (domain or fragment, UniProt P07099 353-455)
chain: DLLTNVMLYWTTGTIISSQRFYKENLGQGWMTQKHERMKVYVPTGFSAFPFELLHTPEKWVRFKYPKLISYSYMVRGGHFAAFEEPELLAQDIRKFLSVLERQ
Take B1: in assay [2], the binding result is reported as “no binding”.

B2: 35S-labeled microsomal epoxide hydrolase (mEH) (enzyme, UniProt P07099 1-455)
chain: MWLEILLTSVLGFAIYWFISRDKEETLPLEDGWWGPGTRSAAREDDSIRPFKVETSDEEIHDLHQRIDKFRFTPPLEDSCFHYGFNSNYLKKVISYWRNEFDWKKQVEILNRYPHFKTKIEGLDIHFIHVKPPQLPAGHTPKPLLMVHGWPGSFYEFYKIIPLLTDPKNHGLSDEHVFEVICPSIPGYGFSEASSKKGFNSVATARIFYKLMLRLGFQEFYIQGGDWGSLICTNMAQLVPSHVKGLHLNMALVLSNFSTLTLLLGQRFGRFLGLTERDVELLYPVKEKVFYSLMRESGYMHIQCTKPDTVGSALNDSPVGLAAYILEKFSTWTNTEFRYLEDGGLERKFSLDDLLTNVMLYWTTGTIISSQRFYKENLGQGWMTQKHERMKVYVPTGFSAFPFELLHTPEKWVRFKYPKLISYSYMVRGGHFAAFEEPELLAQDIRKFLSVLERQ
modifications: 35S-methionine label
For the molecule B2, in assay [3], the binding entry is “binds”.

The values above are taken from publication PMC4002904.
